Reference: paper PMC6949271
No constants are given. Whether binding was seen depends on the method and setting. Binding seen in cells or lysates may run through a third protein. For some assays here: Binding can be weak; no strength is given.

Protein sequences, listed by entry. Tags and fused reporters are not part of them. Lines headed by an entry give the natural chain unless they say otherwise; changes in a name come on top.
UniProt Q92547: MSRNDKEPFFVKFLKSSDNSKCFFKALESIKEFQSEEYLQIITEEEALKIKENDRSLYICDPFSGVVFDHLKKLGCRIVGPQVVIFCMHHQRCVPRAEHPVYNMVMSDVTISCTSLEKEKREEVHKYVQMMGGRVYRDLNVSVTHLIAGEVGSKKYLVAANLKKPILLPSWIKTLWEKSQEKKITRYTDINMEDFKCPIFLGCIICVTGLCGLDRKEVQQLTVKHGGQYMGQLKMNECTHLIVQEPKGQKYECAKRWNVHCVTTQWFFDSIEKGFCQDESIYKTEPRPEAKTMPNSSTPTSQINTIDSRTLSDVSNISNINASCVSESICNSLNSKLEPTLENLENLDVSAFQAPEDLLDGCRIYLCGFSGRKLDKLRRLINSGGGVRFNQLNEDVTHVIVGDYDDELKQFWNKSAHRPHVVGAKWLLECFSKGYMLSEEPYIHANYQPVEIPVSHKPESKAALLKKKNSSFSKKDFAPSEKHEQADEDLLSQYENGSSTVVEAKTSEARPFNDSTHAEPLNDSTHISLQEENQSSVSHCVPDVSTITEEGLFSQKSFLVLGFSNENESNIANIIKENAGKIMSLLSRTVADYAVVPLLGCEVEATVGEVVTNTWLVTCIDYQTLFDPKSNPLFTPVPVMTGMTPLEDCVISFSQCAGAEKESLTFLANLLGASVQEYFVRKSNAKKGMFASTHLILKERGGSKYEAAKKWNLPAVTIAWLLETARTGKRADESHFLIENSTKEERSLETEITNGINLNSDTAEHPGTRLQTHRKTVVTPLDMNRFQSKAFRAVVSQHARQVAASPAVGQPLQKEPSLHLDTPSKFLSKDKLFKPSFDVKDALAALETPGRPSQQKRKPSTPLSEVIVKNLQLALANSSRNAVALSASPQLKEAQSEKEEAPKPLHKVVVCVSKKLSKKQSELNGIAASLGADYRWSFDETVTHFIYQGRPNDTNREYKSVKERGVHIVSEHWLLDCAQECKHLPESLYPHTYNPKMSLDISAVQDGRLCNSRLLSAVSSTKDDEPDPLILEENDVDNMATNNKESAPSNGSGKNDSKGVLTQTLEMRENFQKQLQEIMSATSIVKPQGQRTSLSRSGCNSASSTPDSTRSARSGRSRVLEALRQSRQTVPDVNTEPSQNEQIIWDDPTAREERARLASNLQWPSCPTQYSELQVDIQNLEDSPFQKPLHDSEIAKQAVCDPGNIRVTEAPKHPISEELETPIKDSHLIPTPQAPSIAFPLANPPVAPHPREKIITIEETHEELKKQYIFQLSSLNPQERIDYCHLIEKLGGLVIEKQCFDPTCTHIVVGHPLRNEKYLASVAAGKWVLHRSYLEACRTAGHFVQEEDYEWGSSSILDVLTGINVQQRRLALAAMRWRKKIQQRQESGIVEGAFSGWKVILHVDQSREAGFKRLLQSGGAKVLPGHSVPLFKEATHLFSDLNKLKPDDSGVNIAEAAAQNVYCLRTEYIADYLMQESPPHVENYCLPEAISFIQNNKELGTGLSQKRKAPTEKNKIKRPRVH

Tests used:
GST-TOPBP1 BRCT0-2 = experiment: pull-down; 5 µg purified GST-TOPBP1 BRCT fusion protein mixed with 33 µl HeLa nuclear extract (7 mg/ml), 1.5 h at 4 °C, glutathione-Sepharose; wash 50 mM Tris pH 7.5, 150 mM NaCl, 1 mM DTT, 0.2% NP-40; only the target purified
[1] = target: GFP-tagged full-length TOPBP1, BRCT2 mutant (Lys to Ala) (UniProt Q92547); experiment: co-IP; GFP-tagged TOPBP1 constructs captured on GFP-Trap magnetic agarose from Benzonase-treated lysates of transfected 293FT cells (200 mM NaCl, 2 mM EDTA, 4 °C); endogenous partners detected by blot

binding (GST-TOPBP1 BRCT0-2) | binding [1] | Binder
binds | – | Treacle, endogenous (HeLa nuclear extract) (protein, UniProt Q13428 1-1488) MAEARKRRELLPLIYHHLLRAGYVRAAREVKEQSGQKCFLAQPVTLLDIYTHWQQTSELGRKRKAEEDAALQAKKTRVSDPISTSESSEEEEEAEAETAKATPRLASTNSSVLGADLPSSMKEKAKAETEKAGKTGNSMPHPATGKTVANLLSGKSPRKSAEPSANTTLVSETEEEGSVPAFGAAAKPGMVSAGQADSSSEDTSSSSDETDVEGKPSVKPAQVKASSVSTKESPARKAAPAPGKVGDVTPQVKGGALPPAKRAKKPEEESESSEEGSESEEEAPAGTRSQVKASEKILQVRAASAPAKGTPGKGATPAPPGKAGAVASQTKAGKPEEDSESSSEESSDSEEETPAAKALLQAKASGKTSQVGAASAPAKESPRKGAAPAPPGKTGPAVAKAQAGKREEDSQSSSEESDSEEEAPAQAKPSGKAPQVRAASAPAKESPRKGAAPAPPRKTGPAAAQVQVGKQEEDSRSSSEESDSDREALAAMNAAQVKPLGKSPQVKPASTMGMGPLGKGAGPVPPGKVGPATPSAQVGKWEEDSESSSEESSDSSDGEVPTAVAPAQEKSLGNILQAKPTSSPAKGPPQKAGPVAVQVKAEKPMDNSESSEESSDSADSEEAPAAMTAAQAKPALKIPQTKACPKKTNTTASAKVAPVRVGTQAPRKAGTATSPAGSSPAVAGGTQRPAEDSSSSEESDSEEEKTGLAVTVGQAKSVGKGLQVKAASVPVKGSLGQGTAPVLPGKTGPTVTQVKAEKQEDSESSEEESDSEEAAASPAQVKTSVKKTQAKANPAAARAPSAKGTISAPGKVVTAAAQAKQRSPSKVKPPVRNPQNSTVLARGPASVPSVGKAVATAAQAQTGPEEDSGSSEEESDSEEEAETLAQVKPSGKTHQIRAALAPAKESPRKGAAPTPPGKTGPSAAQAGKQDDSGSSSEESDSDGEAPAAVTSAQVIKPPLIFVDPNRSPAGPAATPAQAQAASTPRKARASESTARSSSSESEDEDVIPATQCLTPGIRTNVVTMPTAHPRIAPKASMAGASSSKESSRISDGKKQEGPATQVSKKNPASLPLTQAALKVLAQKASEAQPPVARTQPSSGVDSAVGTLPATSPQSTSVQAKGTNKLRKPKLPEVQQATKAPESSDDSEDSSDSSSGSEEDGEGPQGAKSAHTLGPTPSRTETLVEETAAESSEDDVVAPSQSLLSGYMTPGLTPANSQASKATPKLDSSPSVSSTLAAKDDPDGKQEAKPQQAAGMLSPKTGGKEAASGTTPQKSRKPKKGAGNPQASTLALQSNITQCLLGQPWPLNEAQVQASVVKVLTELLEQERKKVVDTTKESSRKGWESRKRKLSGDQPAARTPRSKKKKKLGAGEGGEASVSPEKTSTTSKGKAKRDKASGDVKEKKGKGSLGSQGAKDEPEEELQKGMGTVEGGDQSNPKSKKEKKKSDKRKKDKEKKEKKKKAKKASTKDSESPSQKKKKKKKKTAEQTV
– | no binding | Treacle, endogenous (293FT) (protein, UniProt Q13428 1-1488) MAEARKRRELLPLIYHHLLRAGYVRAAREVKEQSGQKCFLAQPVTLLDIYTHWQQTSELGRKRKAEEDAALQAKKTRVSDPISTSESSEEEEEAEAETAKATPRLASTNSSVLGADLPSSMKEKAKAETEKAGKTGNSMPHPATGKTVANLLSGKSPRKSAEPSANTTLVSETEEEGSVPAFGAAAKPGMVSAGQADSSSEDTSSSSDETDVEGKPSVKPAQVKASSVSTKESPARKAAPAPGKVGDVTPQVKGGALPPAKRAKKPEEESESSEEGSESEEEAPAGTRSQVKASEKILQVRAASAPAKGTPGKGATPAPPGKAGAVASQTKAGKPEEDSESSSEESSDSEEETPAAKALLQAKASGKTSQVGAASAPAKESPRKGAAPAPPGKTGPAVAKAQAGKREEDSQSSSEESDSEEEAPAQAKPSGKAPQVRAASAPAKESPRKGAAPAPPRKTGPAAAQVQVGKQEEDSRSSSEESDSDREALAAMNAAQVKPLGKSPQVKPASTMGMGPLGKGAGPVPPGKVGPATPSAQVGKWEEDSESSSEESSDSSDGEVPTAVAPAQEKSLGNILQAKPTSSPAKGPPQKAGPVAVQVKAEKPMDNSESSEESSDSADSEEAPAAMTAAQAKPALKIPQTKACPKKTNTTASAKVAPVRVGTQAPRKAGTATSPAGSSPAVAGGTQRPAEDSSSSEESDSEEEKTGLAVTVGQAKSVGKGLQVKAASVPVKGSLGQGTAPVLPGKTGPTVTQVKAEKQEDSESSEEESDSEEAAASPAQVKTSVKKTQAKANPAAARAPSAKGTISAPGKVVTAAAQAKQRSPSKVKPPVRNPQNSTVLARGPASVPSVGKAVATAAQAQTGPEEDSGSSEEESDSEEEAETLAQVKPSGKTHQIRAALAPAKESPRKGAAPTPPGKTGPSAAQAGKQDDSGSSSEESDSDGEAPAAVTSAQVIKPPLIFVDPNRSPAGPAATPAQAQAASTPRKARASESTARSSSSESEDEDVIPATQCLTPGIRTNVVTMPTAHPRIAPKASMAGASSSKESSRISDGKKQEGPATQVSKKNPASLPLTQAALKVLAQKASEAQPPVARTQPSSGVDSAVGTLPATSPQSTSVQAKGTNKLRKPKLPEVQQATKAPESSDDSEDSSDSSSGSEEDGEGPQGAKSAHTLGPTPSRTETLVEETAAESSEDDVVAPSQSLLSGYMTPGLTPANSQASKATPKLDSSPSVSSTLAAKDDPDGKQEAKPQQAAGMLSPKTGGKEAASGTTPQKSRKPKKGAGNPQASTLALQSNITQCLLGQPWPLNEAQVQASVVKVLTELLEQERKKVVDTTKESSRKGWESRKRKLSGDQPAARTPRSKKKKKLGAGEGGEASVSPEKTSTTSKGKAKRDKASGDVKEKKGKGSLGSQGAKDEPEEELQKGMGTVEGGDQSNPKSKKEKKKSDKRKKDKEKKEKKKKAKKASTKDSESPSQKKKKKKKKTAEQTV
